The experiment deals with TC2N (human) (UniProt Q8N9U0). The experiment is described as follows: co-IP; lysates of stably transfected MCF7 and MDA-MB-231 cells, IP with Flag antibody, WB with TC2N and EBP1 antibodies.

Chains of the proteins cited; added tags and fusions are not shown.
UniProt Q8N9U0: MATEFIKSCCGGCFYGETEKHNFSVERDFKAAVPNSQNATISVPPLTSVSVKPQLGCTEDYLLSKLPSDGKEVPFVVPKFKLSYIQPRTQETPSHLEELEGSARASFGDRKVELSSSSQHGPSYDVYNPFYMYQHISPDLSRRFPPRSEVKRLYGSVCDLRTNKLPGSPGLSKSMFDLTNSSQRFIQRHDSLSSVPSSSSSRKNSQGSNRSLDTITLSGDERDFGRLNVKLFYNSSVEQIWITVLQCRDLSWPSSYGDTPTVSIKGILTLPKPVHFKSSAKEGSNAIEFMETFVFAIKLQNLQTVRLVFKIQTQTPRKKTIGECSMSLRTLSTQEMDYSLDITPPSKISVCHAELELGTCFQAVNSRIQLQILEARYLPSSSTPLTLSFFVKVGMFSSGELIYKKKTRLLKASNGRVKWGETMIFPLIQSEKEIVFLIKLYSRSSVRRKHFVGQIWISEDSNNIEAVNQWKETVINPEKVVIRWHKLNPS

Results are given in words; binding and its absence hold for the method and conditions named. In cells and extracts the contact can be indirect. Some entries that bind do so weakly or less than the wild type.

B1: EBP1 (protein, UniProt Q9UQ80 1-394)
chain: MSGEDEQQEQTIAEDLVVTKYKMGGDIANRVLRSLVEASSSGVSVLSLCEKGDAMIMEETGKIFKKEKEMKKGIAFPTSISVNNCVCHFSPLKSDQDYILKEGDLVKIDLGVHVDGFIANVAHTFVVDVAQGTQVTGRKADVIKAAHLCAEAALRLVKPGNQNTQVTEAWNKVAHSFNCTPIEGMLSHQLKQHVIDGEKTIIQNPTDQQKKDHEKAEFEVHEVYAVDVLVSSGEGKAKDAGQRTTIYKRDPSKQYGLKMKTSRAFFSEVERRFDAMPFTLRAFEDEKKARMGVVECAKHELLQPFNVLYEKEGEFVAQFKFTVLLMPNGPMRITSGPFEPDLYKSEMEVQDAELKALLQSSASRKTQKKKKKKASKTAENATSGETLEENEAGD
As for B1, the binding result is recorded as “binds”.

Values taken from PMC6541591.
